Tested on: BY2 suspension cells
Test: Effects of colchicine on growth and cell separation of BY2 suspension cells
Format: cell-based, tobacco
Excerpt: BY2 suspension-cultured cells were obtained from Japan tobacco and maintained in LSBY2 medium in a 7 day cycle. Jimsonweed suspension and Pettite Havana tobacco suspensions were initiated from callus initiated at DAS and Xanthi suspensions were procured as a sample from Professor Jack Widholm from UIUC, IL. JT-NT1 suspension cells, obtained from Washington University that are maintained in NT1B medium in 7 day cycle were used only for the pectin degradation enzyme study to separate the cells into single cells. The cells were cultured in shake flasks at 25-28° C. in dark on orbital shakers at 150 rpm. […] The NT-1 cell line is widely used and readily available; though, any tobacco suspension cell line is consistent with the practice of the invention. […]
Cell expansion and separation were observed by light microscopy (with Nomarski and dark field optics). Spherical cells and single cells were counted by using a hemacytometer to determine the degree of cell expansion and separation, respectively. Cell numbers in aggregates were determined by treating with 5% (wt/vol) chromium trioxide for 16 hr and counting cells (Henshaw et. al, 1966). Cell viability was determined by staining cells (Yokoyama et. al, 1997) with fluorescein diacetate (FDA) and propidium iodide (PI) using a fluorescent microscope (Zeiss Photomicroscope). […]

COc1cc2c(c(OC)c1OC)-c1ccc(OC)c(=O)cc1[C@@H](NC(C)=O)CC2 [Colchicine]
cell swelling first observed: 3 days | time of continuous growth in the presence of colchicine (1 mM): at least 14 days
